Source: ChEMBL document CHEMBL3988442, “University of Dundee, Small-Polar-MMV Screening Library” (2021).

Protein sequences, listed by entry. Tags and fused reporters are not part of them.
UniProt E9BF75, entry or part of it: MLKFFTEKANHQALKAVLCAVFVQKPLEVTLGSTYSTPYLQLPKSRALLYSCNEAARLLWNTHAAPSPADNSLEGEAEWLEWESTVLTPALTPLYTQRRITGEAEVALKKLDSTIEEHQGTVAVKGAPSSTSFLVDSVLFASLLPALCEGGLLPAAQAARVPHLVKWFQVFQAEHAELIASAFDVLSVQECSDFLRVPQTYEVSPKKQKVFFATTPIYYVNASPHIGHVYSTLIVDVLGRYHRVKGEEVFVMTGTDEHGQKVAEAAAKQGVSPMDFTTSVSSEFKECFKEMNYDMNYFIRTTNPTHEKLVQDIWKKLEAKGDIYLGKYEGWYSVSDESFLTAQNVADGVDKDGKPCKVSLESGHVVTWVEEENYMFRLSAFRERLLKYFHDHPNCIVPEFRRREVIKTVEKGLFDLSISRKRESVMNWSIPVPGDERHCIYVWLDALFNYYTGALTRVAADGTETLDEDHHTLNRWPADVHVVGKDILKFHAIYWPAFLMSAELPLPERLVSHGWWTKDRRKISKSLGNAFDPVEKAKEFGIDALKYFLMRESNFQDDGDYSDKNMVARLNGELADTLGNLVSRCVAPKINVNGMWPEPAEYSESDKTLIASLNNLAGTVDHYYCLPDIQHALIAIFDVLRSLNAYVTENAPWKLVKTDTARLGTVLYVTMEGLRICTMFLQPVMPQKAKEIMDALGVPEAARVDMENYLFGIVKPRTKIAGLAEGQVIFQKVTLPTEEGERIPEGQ

All values are in %.
How 0% and 100% were set is not recorded. Most values in the screen are low, and negative values occur.
Compounds were drawn at random from those tested, without regard to their results.
A dash means the value is not listed here; it may have been measured.

LdMetRS: 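Methionyl-tRNA synthetase (putative), Leishmania donovani (UniProt E9BF75). Primary screen of methionyl-tRNA synthetase; the read-out is not stated. The test concentration is not given. The values are filed as inhibition. About 68,000 compounds were tested under these conditions; 0.035% (about 24) showed 50% or more at least once.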
Mtb heat-shock: 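Assay on Mycobacterium tuberculosis, filed only as a heat shock assay from Cornell; the read-out is not stated. The concentration is filed as 10 mM, unlikely as a test dose, so the dose is not known. Direction is inferred from retests: higher values go with stronger inhibition. Size under these conditions: about 69,000 compounds, about 930 of them at 50% or above in at least one test.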

Result for CCc1nnc(CN(C)c2cc(C)nc3c(C)c(C)nn23)o1 was LdMetRS: 4.839%; Mtb heat-shock: -40%.
Result for CN(C)C(=O)CN1CCC2(COCc3cnc(-c4ccccc4)nc32)C1 (stereo not given) was LdMetRS: 7.235%; Mtb heat-shock: 22.22%.
Result for Cc1ccc2c(n1)N(CC1CC1)CCN(S(=O)(=O)C1CC1)C2 was LdMetRS: 13.78%.
Result for [H][C@@]12OCCN(S(=O)(=O)C3CC3)[C@@]1([H])CC[C@H]2OCC(C)C was Mtb heat-shock: -7.443%.
Result for COCC(=O)N1Cc2nccn2CC(COc2cccnc2)C1 (stereo not given) was LdMetRS: 11.78%; Mtb heat-shock: -24.61%.
Result for NC(=O)C1CN(c2ccc3c(Cl)ccnc3c2F)CCO1 (stereo not given) was LdMetRS: 19.37%; Mtb heat-shock: 9.684%.
Result for O=C(CCn1ccc2ncccc2c1=O)N1CCCC1 was LdMetRS: 19.64%; Mtb heat-shock: -113.8%.
Result for O=C(Cn1cccn1)N1CCC(c2nnc(C(F)(F)F)o2)CC1 was LdMetRS: 13.82%; Mtb heat-shock: -10.11%.
Result for CCc1ccsc1C(=O)N1CCN(CCN2C(=O)CCC2=O)CC1 was LdMetRS: 18.58%; Mtb heat-shock: -10.68%.
Result for Cl.Cl.Cn1cnc2c(N3CCCC3)nc(C3CCNCC3)cc21 was Mtb heat-shock: 24.12%.
Result for O=C(NC1CCCC1)N1CCCCC1c1nc(C2CC2)no1 (stereo not given) was LdMetRS: 11.78%; Mtb heat-shock: -4.285%.
Result for CC(C)c1nccn1C1CCCN(C(=O)c2ccc3[nH]nnc3c2)C1 (stereo not given) was LdMetRS: 13.19%; Mtb heat-shock: -11.08%.
Result for COc1cccc2c1OCC(NC(=O)NCc1cccs1)C2 (stereo not given) was LdMetRS: 14.08%; Mtb heat-shock: -14.49%.
Result for COc1ccc2c(c1)OCC(CNC(=O)c1ccncc1)C2 (stereo not given) was LdMetRS: 7.407%; Mtb heat-shock: 0.6864%.
Result for CCC(=O)N1CCCC1C(=O)N1CCC(Cc2ccc(F)cc2)CC1 (stereo not given) was LdMetRS: 15.26%; Mtb heat-shock: -11.65%.
Result for O=C(CC1=CSC2=NCCCN12)N1CCCCCC1c1ccco1 (stereo not given) was LdMetRS: 3.118%; Mtb heat-shock: -24.3%.
Result for CC(C)c1noc(C2CCN(C(=O)C3CCCO3)CC2)n1 (stereo not given) was LdMetRS: 9.353%; Mtb heat-shock: -0.2161%.
Result for CN(C)c1ccc(C(=O)N2CCN(CC(O)C(C)(C)C)CC2)nn1 (stereo not given) was LdMetRS: 10.84%; Mtb heat-shock: -8.108%.
Result for O=C(Nc1ccc(-n2cccn2)cc1)N1C[C@H](O)[C@@H](N2CCOCC2)C1 was LdMetRS: 19.22%; Mtb heat-shock: -50.6%.
Result for Cc1cc(CN(CCO)Cc2cc(Br)ccc2F)no1 was LdMetRS: 15.09%; Mtb heat-shock: 2.71%.
Result for O=C(O)CSC1CCc2ccccc2NC1=O (stereo not given) was LdMetRS: 16.21%; Mtb heat-shock: -6.478%.
Result for Cc1nsc(C(=O)NCCc2cccs2)n1 was LdMetRS: 4.802%; Mtb heat-shock: 34.49%.
Result for Nc1c(C(=O)C2CCCN(C(=O)C3CC3)C2)cnn1-c1ccc(F)cc1 (stereo not given) was LdMetRS: 13.98%; Mtb heat-shock: 0.2249%.
Result for O=c1cc(N2CCCC2)cnn1CC(F)F was LdMetRS: -11.75%; Mtb heat-shock: 13.2%.
Result for CCc1c(C(=O)O)nnn1-c1cc(C)cc(C)c1 was LdMetRS: 13.35%; Mtb heat-shock: -9.344%.
Result for O=c1[nH]c2c(c(=O)n1C1CCCCC1)CCC2Nc1ccccn1 (stereo not given) was LdMetRS: -2.121%; Mtb heat-shock: 12.24%.
Result for CNS(=O)(=O)c1ccc(C(=O)NC2CCOc3ccccc32)o1 (stereo not given) was LdMetRS: 16.2%; Mtb heat-shock: -12.1%.
Result for COc1cccc(CN2CC[C@H](c3nnc(C)o3)C2)c1 was LdMetRS: -1.017%; Mtb heat-shock: -20.1%.
Result for Cc1cc(C(=O)N(C)Cc2nc(-c3ccccn3)no2)c(C)o1 was LdMetRS: 9.589%; Mtb heat-shock: 24.46%.
Result for O=C(C1CC1)N1Cc2[nH]nc(COCc3cccnc3)c2C1 was LdMetRS: 8.743%.
Result for Cc1cc(C)n(-c2ccc(CNCc3ccc(OC(C)C)cc3)cn2)n1 was LdMetRS: 30.61%; Mtb heat-shock: 11.53%.
Result for OCc1cc(C2CCCN2c2ncccn2)n[nH]1 (stereo not given) was LdMetRS: 9.062%; Mtb heat-shock: 2.527%.
Result for CC(=O)NS(=O)(=O)c1ccc2c(c1)N(C)CCC2 was LdMetRS: 13.71%; Mtb heat-shock: 8.509%.
Result for CCc1ccc(CN2CCNC(C(=O)N3CCN(C)CC3)C2)nc1 (stereo not given) was LdMetRS: 10.47%; Mtb heat-shock: -5.458%.
Result for c1csc(-c2noc(C3CN(Cc4ccc5c(c4)CCO5)C3)n2)c1 was LdMetRS: 10.07%.
Result for O=C(O)c1ccc(N2CCC(Cc3ccccc3)CC2)nn1 was LdMetRS: 8.633%; Mtb heat-shock: 36.54%.
Result for Cn1nc(C(=O)N2CCOCC2)c2c1CN(CC1CCC1)C2 was LdMetRS: 17.05%; Mtb heat-shock: 9.038%.
Result for Cc1noc(C)c1CN(C)c1nc(C2CCCC2)nc2c1cnn2C was LdMetRS: 5.634%; Mtb heat-shock: 10.92%.
Result for [H][C@]12CC[C@]([H])(CN(c3ncnc4ccsc34)C1)N(CC1CC1)C2=O was Mtb heat-shock: -12.8%.
Result for COCCN1CCOCC12CCN(C(=O)c1c[nH]c3ccccc13)CC2 was LdMetRS: 5.333%; Mtb heat-shock: -39.55%.
Result for OCc1cc2ccccc2nc1NCC1CC1 was LdMetRS: 20.64%; Mtb heat-shock: -24.95%.
Result for N#Cc1c(F)cccc1N1CCC(NS(=O)(=O)c2cccs2)CC1 was LdMetRS: -6.404%; Mtb heat-shock: -4.928%.
Result for COc1cccc(CN(C)C(=O)CN2CC(n3nc(C)cc3C)C2)c1 was LdMetRS: 6.338%; Mtb heat-shock: -8.779%.
Result for O=C(c1ccccn1)N1CCC2(CC1)COC(COCC1CCCC1)C2 (stereo not given) was LdMetRS: 13.07%.
Result for CCCc1cc(NCCn2cccn2)n2nccc2n1 was LdMetRS: 9.61%; Mtb heat-shock: 70.39%.
Result for N#Cc1ccnc(N2CCN(CC(O)c3c(F)cccc3F)CC2)c1 (stereo not given) was LdMetRS: 10.86%; Mtb heat-shock: -30.21%.
Result for Cc1cc(NC2CCC(=O)N(C)C2)n2nccc2n1 (stereo not given) was LdMetRS: 15.46%; Mtb heat-shock: 6.361%.

For reference, 4 entries once more:

SMILES,LdMetRS,Mtb heat-shock
Cl.Cl.Cn1cnc2c(N3CCCC3)nc(C3CCNCC3)cc21,-,24.12%
O=C(CCn1ccc2ncccc2c1=O)N1CCCC1,19.64%,-113.8%
Cc1ccc2c(n1)N(CC1CC1)CCN(S(=O)(=O)C1CC1)C2,13.78%,-
Cc1cc(CN(CCO)Cc2cc(Br)ccc2F)no1,15.09%,2.71%